The record followed here is patent publication US11717499B2 (priority 2011, dated 2023).

In this assay the test system is inflammatory cell infiltration in placenta. The following applies: LPS-treated mouse rescued with 1.56 mg/kg DMA; representative section.

Consider `CC(=O)N(C)C` [DMA, N,N-dimethylacetamide], for which the “Inflammatory cells in placental labyrinth section” value is “Inflammatory cells are scant”.
